The record followed here is article PMC12390678.

Protein sequences, listed by entry. Tags and fused reporters are not part of them. Lines headed by an entry give the natural chain unless they say otherwise; changes in a name come on top. Chains listed by the source or under a name are the forms on record and can include a tag or linker. Residues count along the entry.
UniProt P03186: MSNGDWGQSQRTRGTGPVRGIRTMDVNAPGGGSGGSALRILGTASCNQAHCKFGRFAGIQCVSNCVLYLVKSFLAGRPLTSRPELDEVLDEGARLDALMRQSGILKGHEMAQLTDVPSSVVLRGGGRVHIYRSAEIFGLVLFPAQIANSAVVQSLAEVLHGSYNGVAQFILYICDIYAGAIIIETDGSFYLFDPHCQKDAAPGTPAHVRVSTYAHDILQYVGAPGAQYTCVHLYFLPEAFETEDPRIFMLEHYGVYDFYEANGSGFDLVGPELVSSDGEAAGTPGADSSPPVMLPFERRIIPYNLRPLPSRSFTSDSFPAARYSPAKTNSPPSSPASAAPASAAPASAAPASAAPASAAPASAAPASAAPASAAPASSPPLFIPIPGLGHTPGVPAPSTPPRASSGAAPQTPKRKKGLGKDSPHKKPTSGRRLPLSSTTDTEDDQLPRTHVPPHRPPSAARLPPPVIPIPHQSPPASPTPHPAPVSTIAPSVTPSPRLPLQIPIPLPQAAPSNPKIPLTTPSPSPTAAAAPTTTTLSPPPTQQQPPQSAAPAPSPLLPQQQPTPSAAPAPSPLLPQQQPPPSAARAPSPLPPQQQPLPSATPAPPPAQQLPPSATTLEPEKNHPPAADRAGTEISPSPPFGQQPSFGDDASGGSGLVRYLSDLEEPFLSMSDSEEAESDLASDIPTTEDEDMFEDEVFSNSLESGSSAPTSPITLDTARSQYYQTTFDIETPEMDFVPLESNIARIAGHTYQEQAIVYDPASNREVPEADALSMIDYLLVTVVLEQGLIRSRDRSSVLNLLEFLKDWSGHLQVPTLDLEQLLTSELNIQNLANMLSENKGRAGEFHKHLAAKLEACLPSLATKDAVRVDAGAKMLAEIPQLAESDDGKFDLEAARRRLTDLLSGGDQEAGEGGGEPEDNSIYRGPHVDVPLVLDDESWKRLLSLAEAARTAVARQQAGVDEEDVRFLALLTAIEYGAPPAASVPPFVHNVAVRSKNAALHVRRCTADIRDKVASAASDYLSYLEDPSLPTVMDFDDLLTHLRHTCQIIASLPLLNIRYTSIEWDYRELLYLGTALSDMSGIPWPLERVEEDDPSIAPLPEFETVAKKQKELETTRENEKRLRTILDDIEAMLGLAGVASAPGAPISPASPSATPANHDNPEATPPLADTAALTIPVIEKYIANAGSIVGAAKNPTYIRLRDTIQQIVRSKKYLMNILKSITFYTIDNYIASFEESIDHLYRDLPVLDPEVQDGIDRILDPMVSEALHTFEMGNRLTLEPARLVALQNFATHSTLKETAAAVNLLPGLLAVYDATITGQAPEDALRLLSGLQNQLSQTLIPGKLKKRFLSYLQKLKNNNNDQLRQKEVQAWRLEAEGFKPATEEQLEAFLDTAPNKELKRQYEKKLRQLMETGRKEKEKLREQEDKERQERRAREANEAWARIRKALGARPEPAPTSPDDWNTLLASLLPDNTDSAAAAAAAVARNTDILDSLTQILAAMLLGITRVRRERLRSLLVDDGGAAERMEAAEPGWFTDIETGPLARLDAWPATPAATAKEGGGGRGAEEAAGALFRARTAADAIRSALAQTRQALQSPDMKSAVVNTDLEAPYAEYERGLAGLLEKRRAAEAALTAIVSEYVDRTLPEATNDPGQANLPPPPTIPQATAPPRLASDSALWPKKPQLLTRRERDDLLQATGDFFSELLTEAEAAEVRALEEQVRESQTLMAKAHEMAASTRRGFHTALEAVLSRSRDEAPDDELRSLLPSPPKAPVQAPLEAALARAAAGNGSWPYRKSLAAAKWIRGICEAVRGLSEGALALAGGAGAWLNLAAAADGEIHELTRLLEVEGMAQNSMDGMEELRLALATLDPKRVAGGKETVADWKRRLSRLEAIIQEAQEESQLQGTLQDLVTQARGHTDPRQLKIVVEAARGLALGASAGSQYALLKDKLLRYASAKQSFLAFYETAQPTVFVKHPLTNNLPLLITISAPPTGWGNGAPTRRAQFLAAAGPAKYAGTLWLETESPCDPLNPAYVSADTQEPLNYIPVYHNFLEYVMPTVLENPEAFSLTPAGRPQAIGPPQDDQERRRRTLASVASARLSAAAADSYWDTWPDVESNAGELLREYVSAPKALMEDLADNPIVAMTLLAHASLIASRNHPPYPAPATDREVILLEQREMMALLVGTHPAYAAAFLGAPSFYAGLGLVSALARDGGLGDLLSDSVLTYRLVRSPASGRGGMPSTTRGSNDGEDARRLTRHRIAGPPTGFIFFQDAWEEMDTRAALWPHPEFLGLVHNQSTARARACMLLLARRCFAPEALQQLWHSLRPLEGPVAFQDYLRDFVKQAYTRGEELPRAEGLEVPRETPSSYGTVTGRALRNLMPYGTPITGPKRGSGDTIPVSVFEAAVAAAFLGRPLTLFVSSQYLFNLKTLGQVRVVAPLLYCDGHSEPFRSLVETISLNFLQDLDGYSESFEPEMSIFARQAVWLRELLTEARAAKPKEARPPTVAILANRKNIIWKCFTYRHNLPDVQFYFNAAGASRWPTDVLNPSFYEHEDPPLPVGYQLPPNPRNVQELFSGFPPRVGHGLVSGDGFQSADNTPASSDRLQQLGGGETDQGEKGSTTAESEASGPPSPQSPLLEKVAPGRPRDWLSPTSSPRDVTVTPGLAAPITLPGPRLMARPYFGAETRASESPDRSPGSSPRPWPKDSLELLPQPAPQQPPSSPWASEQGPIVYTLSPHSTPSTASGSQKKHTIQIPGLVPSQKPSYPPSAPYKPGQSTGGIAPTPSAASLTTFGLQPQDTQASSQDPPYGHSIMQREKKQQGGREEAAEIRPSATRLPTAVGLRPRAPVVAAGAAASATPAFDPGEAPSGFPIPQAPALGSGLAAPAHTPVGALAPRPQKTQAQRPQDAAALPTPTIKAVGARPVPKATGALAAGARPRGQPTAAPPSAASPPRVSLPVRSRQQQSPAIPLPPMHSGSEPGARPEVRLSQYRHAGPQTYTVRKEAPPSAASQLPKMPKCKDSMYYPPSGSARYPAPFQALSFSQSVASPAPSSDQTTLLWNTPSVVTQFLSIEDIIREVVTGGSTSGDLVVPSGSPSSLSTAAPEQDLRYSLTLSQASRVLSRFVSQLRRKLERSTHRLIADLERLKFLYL
Flag-tagged BPLF1 1-246: residues 1-246 of P03186
UniProt Q04637: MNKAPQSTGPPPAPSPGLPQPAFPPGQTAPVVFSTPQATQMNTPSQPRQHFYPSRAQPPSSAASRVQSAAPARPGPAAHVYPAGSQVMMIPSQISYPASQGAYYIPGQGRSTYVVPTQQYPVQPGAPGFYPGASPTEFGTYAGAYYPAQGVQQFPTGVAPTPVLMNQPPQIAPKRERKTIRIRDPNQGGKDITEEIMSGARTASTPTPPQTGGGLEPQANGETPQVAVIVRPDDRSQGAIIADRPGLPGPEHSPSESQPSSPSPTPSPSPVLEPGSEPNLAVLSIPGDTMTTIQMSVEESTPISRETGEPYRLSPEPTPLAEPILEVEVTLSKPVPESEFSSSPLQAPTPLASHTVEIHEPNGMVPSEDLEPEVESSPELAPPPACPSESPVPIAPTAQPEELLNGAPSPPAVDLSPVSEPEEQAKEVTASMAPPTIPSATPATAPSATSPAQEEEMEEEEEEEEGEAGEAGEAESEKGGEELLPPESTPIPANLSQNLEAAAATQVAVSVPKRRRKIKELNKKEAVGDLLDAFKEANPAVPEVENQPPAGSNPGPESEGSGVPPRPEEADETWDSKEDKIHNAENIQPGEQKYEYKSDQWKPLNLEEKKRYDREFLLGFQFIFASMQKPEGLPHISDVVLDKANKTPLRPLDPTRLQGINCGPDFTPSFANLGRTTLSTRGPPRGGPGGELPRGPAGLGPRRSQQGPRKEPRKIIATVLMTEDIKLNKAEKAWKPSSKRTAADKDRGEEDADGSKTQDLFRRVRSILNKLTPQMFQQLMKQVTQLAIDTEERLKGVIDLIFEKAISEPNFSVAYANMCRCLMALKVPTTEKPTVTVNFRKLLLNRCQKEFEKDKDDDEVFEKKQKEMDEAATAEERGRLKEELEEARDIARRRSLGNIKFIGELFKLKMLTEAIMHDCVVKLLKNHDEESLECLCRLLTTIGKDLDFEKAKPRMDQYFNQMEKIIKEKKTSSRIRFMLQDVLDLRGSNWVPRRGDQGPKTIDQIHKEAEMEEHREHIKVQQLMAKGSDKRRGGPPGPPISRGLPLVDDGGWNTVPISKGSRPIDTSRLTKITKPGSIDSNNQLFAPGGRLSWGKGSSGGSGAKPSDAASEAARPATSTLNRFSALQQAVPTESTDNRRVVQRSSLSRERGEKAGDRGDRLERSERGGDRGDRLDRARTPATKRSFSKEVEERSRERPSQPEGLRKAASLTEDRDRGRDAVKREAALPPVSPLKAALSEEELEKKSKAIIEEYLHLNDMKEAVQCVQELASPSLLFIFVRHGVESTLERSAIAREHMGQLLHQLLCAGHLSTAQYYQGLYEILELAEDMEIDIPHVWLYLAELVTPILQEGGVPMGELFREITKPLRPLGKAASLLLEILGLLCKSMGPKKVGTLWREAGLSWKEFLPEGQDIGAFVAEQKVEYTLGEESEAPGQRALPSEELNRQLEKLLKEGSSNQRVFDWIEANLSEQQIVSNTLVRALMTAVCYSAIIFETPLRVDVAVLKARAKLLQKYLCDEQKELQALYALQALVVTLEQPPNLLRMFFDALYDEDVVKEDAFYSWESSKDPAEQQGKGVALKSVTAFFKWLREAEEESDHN
UniProt P54619: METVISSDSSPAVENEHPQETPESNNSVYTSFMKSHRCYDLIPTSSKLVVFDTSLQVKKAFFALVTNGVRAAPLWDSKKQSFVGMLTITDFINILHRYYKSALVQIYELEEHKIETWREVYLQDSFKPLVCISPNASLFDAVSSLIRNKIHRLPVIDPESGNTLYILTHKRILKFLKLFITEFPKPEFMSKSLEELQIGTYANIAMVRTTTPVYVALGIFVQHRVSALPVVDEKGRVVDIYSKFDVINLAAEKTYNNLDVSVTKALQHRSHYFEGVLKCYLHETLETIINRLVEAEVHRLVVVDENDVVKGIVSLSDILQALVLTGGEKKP
UniProt Q9Y4R8: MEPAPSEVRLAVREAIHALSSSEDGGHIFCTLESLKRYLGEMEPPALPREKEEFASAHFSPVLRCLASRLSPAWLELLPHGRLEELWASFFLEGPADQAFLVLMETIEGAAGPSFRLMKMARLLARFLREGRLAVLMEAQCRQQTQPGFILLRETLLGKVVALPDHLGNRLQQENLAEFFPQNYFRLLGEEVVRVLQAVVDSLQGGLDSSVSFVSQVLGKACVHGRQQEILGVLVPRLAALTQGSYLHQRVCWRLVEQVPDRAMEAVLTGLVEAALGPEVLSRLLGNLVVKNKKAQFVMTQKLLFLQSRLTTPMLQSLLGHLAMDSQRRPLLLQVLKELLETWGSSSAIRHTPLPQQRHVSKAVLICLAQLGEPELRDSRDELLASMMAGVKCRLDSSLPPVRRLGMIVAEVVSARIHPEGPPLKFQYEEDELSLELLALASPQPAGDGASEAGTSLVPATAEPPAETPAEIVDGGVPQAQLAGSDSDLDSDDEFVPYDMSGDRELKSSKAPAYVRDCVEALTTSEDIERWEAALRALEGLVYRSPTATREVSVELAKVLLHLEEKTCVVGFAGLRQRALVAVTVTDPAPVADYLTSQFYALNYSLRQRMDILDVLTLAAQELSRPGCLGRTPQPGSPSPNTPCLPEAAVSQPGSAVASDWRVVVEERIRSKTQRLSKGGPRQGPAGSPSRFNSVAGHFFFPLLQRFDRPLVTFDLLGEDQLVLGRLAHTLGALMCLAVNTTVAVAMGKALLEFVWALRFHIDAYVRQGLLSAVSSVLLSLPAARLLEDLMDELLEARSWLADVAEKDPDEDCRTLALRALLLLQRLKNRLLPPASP

Results are given in words; binding and its absence hold for the method and conditions named. Binding seen in cells or lysates may run through a third protein. Here binding means that the protein was enriched with, or labelled near, the bait; the list need not be complete.

Test [1] has as its target Flag-tagged BPLF1 1-246 (Epstein-Barr virus) (UniProt P03186). Briefly: affinity purification with mass spectrometry.
For test [2], the target named is full-length BPLF1 construct (BPLF1 FL), FLAG-tagged (Epstein-Barr virus (B95-8)) (UniProt P03186). Briefly: affinity purification with mass spectrometry.

EIF4G1 (from UniProt Q04637 1-1599): the binding entry in test [1] and in test [2] was “binds” in each case.

PRKAG1 (from UniProt P54619 1-331): in test [1], the binding result is recorded as “binds”.

As for “Raptor (regulatory-associated protein of mTOR) (from UniProt Q8N122 1-1335)”, the binding entry in test [1] and in test [2] was “binds” throughout.

In the case of “SMG1 (serine/threonine-protein kinase SMG1) (from UniProt Q96Q15 1-3661)”, the binding entry in test [1] is recorded as “binds”.

As for “TTI1 (Telo2-interacting protein 1) (from UniProt O43156 1-1089)”, the binding result in test [1] and in test [2] was “binds” in each case.

For “Tel2 (Telomere Maintenance 2) (from UniProt Q9Y4R8 1-837)”, the binding entry in test [1] and in test [2] was “binds” throughout.

Take USP9X (from UniProt Q93008 1-2554): the binding entry in test [1] and in test [2] was “binds” in each case.
